Experimental data as given in PubChem BioAssay AID504444 (National Center for Advancing Translational Sciences (NCATS), 2011).
Among all 360,000 compounds or so, about 7,500 (2.1%) were called active. This list was built around the results that the source calls inconclusive (neither active nor inactive); the mix of calls is not that of the screen. Calls follow the shape of the dose curve; as a rule, active = well fitted inhibition curve with a large enough effect; inconclusive = small, poorly fitted or top-dose-only effect, or effect the other way; inactive = flat fitted curve, though single readings scatter. A potency beside an inconclusive call is a rough fit, not a confirmed value.

assay: Nrf2 qHTS screen for inhibitors; conditions: A549 ARE-Fluc reporter, luciferase luminescence, 18-24 h; activity change, negative = inhibition: at 46 µM (top of the series); also: nearly all actives have a fitted effect of over 60% in size
Procedure, shortened: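 A549 ARE_Fluc cells (5000/well, 5% FBS OPTI-MEM) pre-incubated 2 h, then treated with compounds 18-24 h at 37C/5% CO2 in concentration-response. CellTiter-Fluor viability read first; BugLite luciferase luminescence after 15 min at room temperature gives Nrf2 activity.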
% is scaled to controls: 0 for no effect and ±100 for the full control effect; potency is read from the fitted curve at half-maximal effect.

Row | Compound | Potency | activity change, negative = inhibition
1 | COc1cc(C(C)=O)ccc1OCc1nnc(-c2ccccc2Br)o1 | inconclusive: 11.6 µM [activator, partial curve] | –
2 | CCN1CCOC(=O)C1CC(=O)Nc1cc(C)cc(C)c1 (stereo not drawn) | – | inactive: -21.4%
3 | COc1ccc(NC(=O)CC2C(=O)N(c3ccc(F)cc3)C(=O)N2Cc2ccco2)cc1 (stereo not drawn) | – | inactive: 12.3%
4 | Cc1ccc(NC(=O)CSc2ccc(Br)cc2)cc1S(=O)(=O)N1CCOCC1 | inconclusive: 18.4 µM [falling, single point] | –
5 | Cc1cc(C)n2ncc(C(=O)NCC(C)C)c2n1 | – | inactive: -6.11%
6 | Cc1ccc(OCc2cc(C(=O)N3CCN(C)C[C@@H]3c3ccccc3)no2)cc1C | inconclusive: 29.1 µM [falling, single point] | –
7 | Cc1ccc(N2C(=O)CCSC23C(=O)N(Cc2ccccc2)c2ccccc23)cc1F (stereo not drawn) | – | inactive: -22.3%
8 | C[C@@H](NC(=O)c1coc(=O)c(Br)c1)c1ccccc1 | inconclusive: 18.4 µM [activator, partial curve, poor fit] | –
9 | O=C(NCc1ccccc1)c1nn(-c2ccccc2)nc1CO | inconclusive: 16.4 µM [falling, partial curve] | –
10 | COc1ccc(OC)c(NS(=O)(=O)c2ccc(-c3coc(C)n3)cc2)c1 | inconclusive: 32.6 µM [falling, partial curve, poor fit] | –
11 | CCc1sc(C(=O)NC2CCN(C)CC2)cc1Br | inconclusive: 23.1 µM [activator, single point] | –
12 | C=CCc1ccc(OCc2ccc(C(=O)O)o2)c(OC)c1 | inconclusive: 9.2 µM [activator, partial curve] | –
13 | Cc1ccc(S(=O)(=O)Nc2ccc(C(OC(=O)c3ccccc3[N+](=O)[O-])(C(F)(F)F)C(F)(F)F)cc2)cc1 | inconclusive: 14.6 µM [falling, partial curve] | –
14 | CCn1c(SCC(=O)N/N=C/c2ccccc2OCC(=O)O)nnc1-c1ccc(C(C)(C)C)cc1 | inconclusive: 6.51 µM [falling, single point] | –
15 | O=C(O)c1ccccc1NS(=O)(=O)c1ccc(NN=Cc2ccccc2F)c([N+](=O)[O-])c1 | – | inactive: -18.9%
16 | Cc1c(-c2ccc(Br)cc2)nc2ccccn12 | inconclusive: 8.2 µM [activator, partial curve] | –
17 | CCOc1ccccc1NC(=O)CN1C(=O)CC(c2ccc(OC)c(OC)c2)Sc2ccccc21 (stereo not drawn) | inconclusive: 29.1 µM [falling, single point] | –
18 | COc1ccccc1OCc1cc(C(=O)N(C)CCC2CCCCO2)no1 (stereo not drawn) | inconclusive: 7.31 µM [activator, partial curve] | –
19 | COc1ccccc1NC(=S)NCCc1c[nH]c2ccccc12 | inconclusive: 29.1 µM [falling, single point] | –
20 | COc1ccc(-c2n[nH]c(C(F)(F)F)c2-c2cc3ccccc3o2)c(O)c1 | active: 16.4 µM | –
21 | Cc1ccc2c(c1)sc1nc(=O)n(-c3ccccc3)c(=O)n12 | inconclusive: 29.1 µM [activator, single point] | –
22 | Cc1cc2c(cc1C)N(C(=O)CN1C(=O)c3ccccc3C1=O)C(C)(C)c1ssc(=S)c1-2 | inconclusive: 9.2 µM [falling, partial curve, poor fit] | –
23 | CCOc1ccc2ccccc2c1C1NC(=S)N(C)C(C)=C1C(=O)OC (stereo not drawn) | – | inactive: 1.49%

Row | Compound | Potency | activity change, negative = inhibition
24 | CCOc1ccc(C2C([N+](=O)[O-])=C(C)N(C)C(=O)N2C)cc1OC (stereo not drawn) | inconclusive: 10.3 µM [falling, partial curve] | –
25 | O=C(c1ccc2oc(CCCc3ccccc3)nc2c1)N1CCCCC1CO (stereo not drawn) | inconclusive: 2.59 µM [activator, full curve, poor fit] | –
26 | Cc1cc(=O)oc2cc(NS(=O)(=O)c3ccccc3)ccc12 | inconclusive: 5.17 µM [falling, partial curve, poor fit] | –
27 | Cn1c(-n2cccc2)c(-c2c(-c3ccccc3)[nH]c3c2c(=O)n(C)c(=O)n3C)c(=O)n(C)c1=O | – | inactive: 0%
28 | COc1ccccc1NC(=O)CN1CCCN(S(=O)(=O)c2ccc(Br)cc2)CC1 | inconclusive: 32.6 µM [falling, single point] | –
29 | Cc1ccc(Cl)cc1Nc1nc(-c2sc(NC(=O)c3ccco3)nc2C)cs1 | inconclusive: 7.31 µM [activator, partial curve] | –
30 | CCc1ccc(/C=C2\SC(=S)N(CCC(=O)Nc3cc(C)on3)C2=O)cc1 | active: 6.51 µM | –
31 | COc1cc(C(=O)NNC(=S)NC(=O)/C=C/c2ccccc2)cc(OC)c1OC | inconclusive: 18.4 µM [falling, single point] | –
32 | CC(=O)Nc1cccc(C(=O)N2CCN(Cc3ccccc3)CC2)c1 | inconclusive: 1.64 µM [falling, partial curve] | –
33 | CCN(C(=O)COC(=O)C1CC1C)c1c(N)n(Cc2ccccc2)c(=O)[nH]c1=O (stereo not drawn) | inconclusive: 23.1 µM [activator, partial curve, poor fit] | –
34 | Cc1ccc(NC(=O)Cn2c(=O)n(CCCCC(=O)NCc3ccccc3Cl)c(=O)c3ccccc32)cc1C | – | inactive: 5.4%
35 | Cc1cc(C)n(S(=O)(=O)c2ccc3ccccc3c2)n1 | inconclusive: 13 µM [falling, partial curve, poor fit] | –
36 | CCCCNc1nc2c(S(=O)(=O)c3ccc(C)c(C)c3)nnn2c2ccsc12 | – | inactive: -4.39%
37 | Cc1ccc(-c2nonc2NC(=O)c2ccco2)cc1 | inconclusive: 29.1 µM [falling, single point] | –
38 | Cc1sc(NC(=O)c2ccco2)c(C(Nc2ccccn2)c2ccccc2)c1C (stereo not drawn) | active: 20.6 µM | –
39 | COC(=O)c1ccccc1NC(=O)c1ccc2c(c1)CCN2S(C)(=O)=O | – | inactive: 26.1%
40 | COC(=O)c1cc(C(=O)c2ccc(C(C)(C)C)cc2)c[nH]1 | inconclusive: 29.1 µM [falling, single point] | –
41 | CN1C(=O)c2cccc3c(Cl)ccc(c23)C1=O | – | inactive: -11.1%
42 | Cc1c(-c2nc(-c3ccccc3)no2)nnn1-c1cccc(C(F)(F)F)c1 | inconclusive: 2.06 µM [activator, single point] | –
43 | Cn1c(-c2ccccc2)cc(=O)n1-c1ccccc1 | inconclusive: 18.4 µM [activator, partial curve, poor fit] | –
44 | Cc1occc1C(=O)Nc1ccc(OCc2ccccc2)cc1 | inconclusive: 8.2 µM [activator, partial curve] | –
45 | CCn1c(=O)c(=O)[nH]c2c(=O)oc3ccc(S(=O)(=O)Nc4ccc(OC)cc4)cc3c21 | inconclusive: 18.4 µM [falling, single point] | –
46 | Cc1nn2c(-c3ccco3)ccnc2c1-c1ccc(F)cc1 | inconclusive: 2.59 µM [activator, full curve] | –

Row | Compound | Potency | activity change, negative = inhibition
47 | Cc1sc(NC(=O)Cc2ccc3c(c2)OCO3)nc1-c1ccc2c(c1)CCN2C(=O)c1ccccc1F | inconclusive: 1.3 µM [falling, full curve, poor fit] | –
48 | CCn1cc(CN(C)C(=O)CSc2nc(-c3ccco3)cc(C(F)(F)F)n2)c(C)n1 | inconclusive: 29.1 µM [falling, single point] | –
49 | O=C(CCC(=O)c1ccc[nH]1)c1ccc(Cl)cc1 | inconclusive: 5.8 µM [activator, partial curve] | –
50 | O=C(NC1CCCCCC1)c1c(O)c2ccccc2[nH]c1=O | – | inactive: 3.37%
51 | COc1ccc(CC(=O)Nc2cccc(-c3nnc(-c4cccc(C)c4)o3)c2)cc1OC | inconclusive: 29.1 µM [falling, single point] | –
52 | COc1ccc(OCc2nc3c4c(-c5ccccc5)c(-c5ccccc5)oc4ncn3n2)cc1 | – | inactive: 5.15%
53 | COc1cccc(C(=O)c2cn(CC(=O)NCc3ccccc3)c3nc(C)ccc3c2=O)c1 | inconclusive: 25.9 µM [activator, partial curve, poor fit] | –
54 | CCN1CCN(c2cc3c(cc2F)c(=O)c(S(=O)(=O)c2ccccc2)cn3C)CC1 | – | inactive: 2.85%
55 | CS(=O)(=O)Nc1ccc2[nH]c(=O)[nH]c2c1 | inconclusive: 3.66 µM [activator, partial curve, poor fit] | –
56 | Cc1cc(=O)n2[nH]c(C(F)(F)F)c(-c3ccccc3)c2n1 | inconclusive: 14.6 µM [falling, partial curve, poor fit] | –
57 | COc1cc(C(=O)Oc2ccccc2/C=N/NC(=O)c2ccc(Cl)cc2)cc(OC)c1OC | inconclusive: 6.51 µM [falling, single point] | –
58 | Cn1cnnc1SCC(=O)Nc1ccc(OCc2ccccc2)cc1 | inconclusive: 16.4 µM [activator, single point] | –
59 | Clc1ccc(OCCN2CCN(c3ncnc4sccc34)CC2)cc1 | active: 0.259 µM | –
60 | Cc1nn(C)c(C)c1NC(=O)CCSc1nc(-c2ccco2)cc(C(F)(F)F)n1 | – | inactive: -19.7%
61 | CC(Sc1nnc(CN2CCCC2)n1Cc1ccccc1)C(=O)Nc1ccc(F)cc1Cl (stereo not drawn) | – | inactive: 9.27%
62 | CNS(=O)(=O)c1ccc(NC(=O)c2ccoc2C)cc1 | inconclusive: 29.1 µM [activator, single point] | –
63 | O=C(CSc1nc2c(c(=O)n1-c1ccc(F)cc1)SCC2)Nc1ccc2c(c1)OCO2 | inconclusive: 18.4 µM [falling, single point] | –
64 | Cc1ccc(C)c(NC(=O)CSc2c3c(nc4ccc(Cl)cc24)CCCC3)c1 | inconclusive: 16.4 µM [falling, single point] | –
65 | Nc1nc2ccc(O)cc2s1 | inconclusive: 20.6 µM [activator, partial curve] | –
66 | COc1ccc(C(=O)Nc2cccc(OCc3cc(=O)n4c5c(sc4n3)CCCC5)c2)cc1 | – | inactive: 8.32%
67 | CCOc1cc(/C=C2/C(=O)ON=C2C)ccc1OCc1ccc(F)cc1 | – | inactive: -20.7%
68 | Cc1cccc(OCC(=O)N2CCN(S(C)(=O)=O)CC2)c1 | – | inactive: -2.04%
